The other results are listed elsewhere or left out.
What was measured:
Assay in all cases: log2 fold change, soluble protein after heating vs DMSO (PISA); higher = thermal stabilisation; K562 lysate, 10 uM; active = over 0.2 and 3.5 SD of the protein, either way, in both replicates (recomputed)
[1] = compound: CCCS(=O)(=O)Nc1ccc(F)c(C(=O)c2c[nH]c3ncc(-c4ccc(Cl)cc4)cc23)c1F [vemurafenib]
Summary of the method: (§1)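 Dounce homogenisation of K562 pellets in PBS pH 7.4 with 1 mM MgCl2 produced a crude extract, used at 1 mg/mL protein. Exposure to 10 μM compound lasted 30 min, and aliquots were then heated for 3 min across 48°C-58°C, pooled and brought to 0.5% NP-40 at 4°C. The supernatant after 21,000xg for 90 min was quantified by TMTpro 16plex LC-MS/MS with channel sums equalised. Duplicate values are given as log-two fold change in thermal stability relative to solvent controls.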

Amino acid sequences for entries named in this document (tags omitted). A change or cut given only in a name is not applied to a line headed by its entry.
UniProt Q86V48: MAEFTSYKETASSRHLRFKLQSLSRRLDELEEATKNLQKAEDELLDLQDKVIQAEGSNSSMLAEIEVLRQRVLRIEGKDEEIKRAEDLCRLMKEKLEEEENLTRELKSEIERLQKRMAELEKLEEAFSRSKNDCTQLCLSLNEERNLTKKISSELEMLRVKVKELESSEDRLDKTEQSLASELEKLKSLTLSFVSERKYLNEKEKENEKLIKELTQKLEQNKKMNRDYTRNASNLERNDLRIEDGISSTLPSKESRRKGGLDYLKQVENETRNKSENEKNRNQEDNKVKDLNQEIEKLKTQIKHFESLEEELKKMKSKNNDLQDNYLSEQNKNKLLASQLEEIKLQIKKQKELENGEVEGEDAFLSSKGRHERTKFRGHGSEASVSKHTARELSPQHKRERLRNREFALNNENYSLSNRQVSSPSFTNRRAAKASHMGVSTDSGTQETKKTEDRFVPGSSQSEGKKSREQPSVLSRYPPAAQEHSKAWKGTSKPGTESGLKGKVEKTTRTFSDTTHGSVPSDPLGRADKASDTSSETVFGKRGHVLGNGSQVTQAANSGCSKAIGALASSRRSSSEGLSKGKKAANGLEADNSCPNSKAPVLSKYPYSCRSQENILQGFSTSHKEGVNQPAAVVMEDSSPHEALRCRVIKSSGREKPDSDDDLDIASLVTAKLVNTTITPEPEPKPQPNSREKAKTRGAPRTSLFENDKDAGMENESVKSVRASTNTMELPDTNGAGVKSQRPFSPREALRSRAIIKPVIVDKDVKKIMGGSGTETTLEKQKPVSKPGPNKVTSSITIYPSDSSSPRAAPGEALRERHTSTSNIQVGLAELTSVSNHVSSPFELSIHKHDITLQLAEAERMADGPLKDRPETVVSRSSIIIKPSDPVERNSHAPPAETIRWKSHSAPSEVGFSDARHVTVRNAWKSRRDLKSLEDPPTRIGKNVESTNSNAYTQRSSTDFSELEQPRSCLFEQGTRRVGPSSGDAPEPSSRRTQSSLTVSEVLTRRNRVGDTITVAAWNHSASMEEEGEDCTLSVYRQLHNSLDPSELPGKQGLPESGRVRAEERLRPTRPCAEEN
UniProt O43318: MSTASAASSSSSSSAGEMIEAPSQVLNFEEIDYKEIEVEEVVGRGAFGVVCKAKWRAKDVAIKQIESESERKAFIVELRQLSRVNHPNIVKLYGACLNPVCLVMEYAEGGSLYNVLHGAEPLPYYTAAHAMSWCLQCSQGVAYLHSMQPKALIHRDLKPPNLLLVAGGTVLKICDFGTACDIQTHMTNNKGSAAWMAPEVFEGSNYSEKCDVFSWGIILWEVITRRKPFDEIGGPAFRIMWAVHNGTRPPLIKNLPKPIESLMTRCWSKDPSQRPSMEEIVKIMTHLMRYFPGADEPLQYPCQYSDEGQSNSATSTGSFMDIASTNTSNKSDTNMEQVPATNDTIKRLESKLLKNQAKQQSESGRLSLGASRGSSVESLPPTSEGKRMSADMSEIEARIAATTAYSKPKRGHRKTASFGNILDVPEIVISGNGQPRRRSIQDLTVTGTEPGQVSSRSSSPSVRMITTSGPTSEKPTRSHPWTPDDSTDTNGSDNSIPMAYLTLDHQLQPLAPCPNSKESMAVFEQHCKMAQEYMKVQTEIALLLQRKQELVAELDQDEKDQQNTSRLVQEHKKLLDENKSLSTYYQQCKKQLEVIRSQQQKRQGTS
UniProt Q7Z3D4: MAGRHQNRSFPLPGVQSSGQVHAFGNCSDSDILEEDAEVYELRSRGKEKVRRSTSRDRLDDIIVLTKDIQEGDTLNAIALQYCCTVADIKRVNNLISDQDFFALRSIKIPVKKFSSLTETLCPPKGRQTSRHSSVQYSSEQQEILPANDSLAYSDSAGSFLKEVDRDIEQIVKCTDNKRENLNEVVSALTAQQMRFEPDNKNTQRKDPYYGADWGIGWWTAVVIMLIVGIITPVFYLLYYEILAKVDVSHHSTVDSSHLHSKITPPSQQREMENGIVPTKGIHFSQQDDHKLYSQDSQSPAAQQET
UniProt Q96S90: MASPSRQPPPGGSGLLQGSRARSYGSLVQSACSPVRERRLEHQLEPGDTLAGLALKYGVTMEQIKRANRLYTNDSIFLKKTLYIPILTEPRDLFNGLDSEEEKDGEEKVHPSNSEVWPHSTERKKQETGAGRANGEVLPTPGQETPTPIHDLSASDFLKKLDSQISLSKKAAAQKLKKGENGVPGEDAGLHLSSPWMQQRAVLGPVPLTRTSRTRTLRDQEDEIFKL
UniProt P29966: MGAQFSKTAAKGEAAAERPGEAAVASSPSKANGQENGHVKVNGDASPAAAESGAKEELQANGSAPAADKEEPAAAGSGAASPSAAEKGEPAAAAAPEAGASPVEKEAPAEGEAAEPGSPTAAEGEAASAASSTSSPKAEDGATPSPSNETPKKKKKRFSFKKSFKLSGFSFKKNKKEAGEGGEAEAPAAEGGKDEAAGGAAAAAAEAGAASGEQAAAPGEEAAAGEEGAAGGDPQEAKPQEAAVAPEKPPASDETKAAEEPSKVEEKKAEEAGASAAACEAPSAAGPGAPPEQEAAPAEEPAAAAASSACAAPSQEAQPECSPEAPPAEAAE
UniProt P49641: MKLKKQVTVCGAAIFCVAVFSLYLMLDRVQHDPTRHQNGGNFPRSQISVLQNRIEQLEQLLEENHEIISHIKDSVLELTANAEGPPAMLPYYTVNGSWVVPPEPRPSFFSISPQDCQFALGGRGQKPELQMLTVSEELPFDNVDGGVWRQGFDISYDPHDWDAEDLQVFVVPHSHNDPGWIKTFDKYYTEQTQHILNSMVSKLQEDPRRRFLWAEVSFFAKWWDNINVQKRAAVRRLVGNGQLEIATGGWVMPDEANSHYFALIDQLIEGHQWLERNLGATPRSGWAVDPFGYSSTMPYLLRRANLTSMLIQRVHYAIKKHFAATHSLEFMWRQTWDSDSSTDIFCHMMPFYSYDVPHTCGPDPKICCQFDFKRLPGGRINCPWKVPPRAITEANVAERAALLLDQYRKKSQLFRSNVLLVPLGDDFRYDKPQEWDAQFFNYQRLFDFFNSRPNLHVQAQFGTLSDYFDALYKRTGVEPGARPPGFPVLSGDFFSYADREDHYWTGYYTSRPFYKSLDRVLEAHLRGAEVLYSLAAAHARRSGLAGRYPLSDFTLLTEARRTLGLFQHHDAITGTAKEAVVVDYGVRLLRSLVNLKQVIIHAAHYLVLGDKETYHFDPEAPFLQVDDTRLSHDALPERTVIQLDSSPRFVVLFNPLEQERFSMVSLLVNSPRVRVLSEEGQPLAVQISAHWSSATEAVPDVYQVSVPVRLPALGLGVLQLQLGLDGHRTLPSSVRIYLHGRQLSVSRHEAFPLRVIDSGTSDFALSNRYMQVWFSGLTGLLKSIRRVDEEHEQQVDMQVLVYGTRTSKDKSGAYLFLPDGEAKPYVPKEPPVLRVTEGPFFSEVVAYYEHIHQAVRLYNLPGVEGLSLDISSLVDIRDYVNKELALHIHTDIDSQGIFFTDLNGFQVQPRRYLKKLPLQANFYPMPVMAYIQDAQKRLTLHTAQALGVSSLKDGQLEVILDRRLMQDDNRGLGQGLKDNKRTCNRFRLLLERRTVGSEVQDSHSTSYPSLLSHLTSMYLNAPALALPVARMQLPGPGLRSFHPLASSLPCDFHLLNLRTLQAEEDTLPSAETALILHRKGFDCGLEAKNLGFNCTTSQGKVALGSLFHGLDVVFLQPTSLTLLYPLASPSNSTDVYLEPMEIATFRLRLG
UniProt P28482, whole entry, looked up: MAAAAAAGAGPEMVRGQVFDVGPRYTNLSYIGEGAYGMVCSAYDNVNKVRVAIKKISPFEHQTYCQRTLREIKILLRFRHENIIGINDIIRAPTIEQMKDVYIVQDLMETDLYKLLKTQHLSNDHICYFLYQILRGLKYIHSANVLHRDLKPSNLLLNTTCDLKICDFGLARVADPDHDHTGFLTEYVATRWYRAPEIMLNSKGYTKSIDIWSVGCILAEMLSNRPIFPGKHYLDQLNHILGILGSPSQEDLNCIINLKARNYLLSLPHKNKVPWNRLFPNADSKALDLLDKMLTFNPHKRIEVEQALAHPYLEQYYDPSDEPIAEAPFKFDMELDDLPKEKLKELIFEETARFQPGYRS
UniProt P02788: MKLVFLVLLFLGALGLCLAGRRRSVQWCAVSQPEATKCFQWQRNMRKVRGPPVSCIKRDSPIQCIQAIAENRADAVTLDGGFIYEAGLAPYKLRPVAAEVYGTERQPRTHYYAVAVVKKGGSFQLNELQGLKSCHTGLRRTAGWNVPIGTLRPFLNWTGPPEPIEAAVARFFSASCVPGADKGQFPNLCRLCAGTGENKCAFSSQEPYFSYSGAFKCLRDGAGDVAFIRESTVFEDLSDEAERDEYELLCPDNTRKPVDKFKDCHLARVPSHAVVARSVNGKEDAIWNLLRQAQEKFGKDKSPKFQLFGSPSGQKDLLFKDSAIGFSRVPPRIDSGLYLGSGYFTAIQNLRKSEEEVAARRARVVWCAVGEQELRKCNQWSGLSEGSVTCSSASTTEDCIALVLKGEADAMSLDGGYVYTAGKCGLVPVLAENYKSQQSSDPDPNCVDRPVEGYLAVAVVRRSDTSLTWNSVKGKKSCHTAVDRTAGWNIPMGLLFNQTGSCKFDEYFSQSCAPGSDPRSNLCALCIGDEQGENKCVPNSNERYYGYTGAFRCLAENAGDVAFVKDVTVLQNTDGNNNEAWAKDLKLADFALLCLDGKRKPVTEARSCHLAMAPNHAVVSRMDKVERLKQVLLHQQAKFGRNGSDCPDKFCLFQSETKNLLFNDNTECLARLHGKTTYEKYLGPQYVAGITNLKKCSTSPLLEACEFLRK
UniProt Q8WXG6, whole entry, looked up: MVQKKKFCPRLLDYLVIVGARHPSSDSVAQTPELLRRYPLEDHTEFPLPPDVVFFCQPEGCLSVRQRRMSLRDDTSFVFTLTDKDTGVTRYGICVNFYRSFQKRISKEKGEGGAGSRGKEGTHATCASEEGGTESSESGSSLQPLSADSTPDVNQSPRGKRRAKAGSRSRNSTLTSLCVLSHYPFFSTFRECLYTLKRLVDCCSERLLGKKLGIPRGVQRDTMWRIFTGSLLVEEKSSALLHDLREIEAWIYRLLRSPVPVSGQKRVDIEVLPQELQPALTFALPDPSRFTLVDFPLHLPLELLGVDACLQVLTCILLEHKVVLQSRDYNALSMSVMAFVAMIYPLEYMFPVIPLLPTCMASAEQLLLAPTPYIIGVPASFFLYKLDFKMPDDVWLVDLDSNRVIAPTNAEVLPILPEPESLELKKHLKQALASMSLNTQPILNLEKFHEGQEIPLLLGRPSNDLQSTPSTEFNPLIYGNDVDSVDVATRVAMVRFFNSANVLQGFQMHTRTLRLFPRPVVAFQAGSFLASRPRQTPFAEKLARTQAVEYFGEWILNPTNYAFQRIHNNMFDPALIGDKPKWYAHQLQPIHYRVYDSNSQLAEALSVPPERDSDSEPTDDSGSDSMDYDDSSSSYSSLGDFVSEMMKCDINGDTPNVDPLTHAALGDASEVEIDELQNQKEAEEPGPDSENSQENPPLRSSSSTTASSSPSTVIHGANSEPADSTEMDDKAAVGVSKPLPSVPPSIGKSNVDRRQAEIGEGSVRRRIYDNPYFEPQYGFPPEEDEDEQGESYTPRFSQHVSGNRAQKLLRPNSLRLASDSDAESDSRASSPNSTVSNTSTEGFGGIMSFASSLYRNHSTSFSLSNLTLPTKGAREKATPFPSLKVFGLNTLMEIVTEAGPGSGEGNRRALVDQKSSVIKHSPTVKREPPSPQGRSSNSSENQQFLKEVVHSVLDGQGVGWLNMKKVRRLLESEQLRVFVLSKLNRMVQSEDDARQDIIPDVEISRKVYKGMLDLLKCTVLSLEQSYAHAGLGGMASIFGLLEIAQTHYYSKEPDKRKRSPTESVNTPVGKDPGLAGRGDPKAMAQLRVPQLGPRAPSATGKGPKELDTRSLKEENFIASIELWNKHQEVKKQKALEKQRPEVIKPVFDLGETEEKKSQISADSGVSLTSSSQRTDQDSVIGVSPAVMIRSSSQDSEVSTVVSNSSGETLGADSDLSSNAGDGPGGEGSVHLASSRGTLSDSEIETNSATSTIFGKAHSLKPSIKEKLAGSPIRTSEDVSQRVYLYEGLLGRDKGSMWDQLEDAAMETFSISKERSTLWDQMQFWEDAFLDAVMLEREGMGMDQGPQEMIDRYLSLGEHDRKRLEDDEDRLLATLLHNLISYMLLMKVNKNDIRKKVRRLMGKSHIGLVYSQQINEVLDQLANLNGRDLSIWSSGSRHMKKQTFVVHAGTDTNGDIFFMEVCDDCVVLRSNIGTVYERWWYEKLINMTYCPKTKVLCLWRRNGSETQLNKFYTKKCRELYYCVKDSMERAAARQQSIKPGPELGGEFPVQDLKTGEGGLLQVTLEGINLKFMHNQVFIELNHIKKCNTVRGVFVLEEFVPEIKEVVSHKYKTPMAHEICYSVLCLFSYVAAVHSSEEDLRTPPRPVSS

[2] = compound: CCCS(=O)(=O)Nc1ccc(F)c(C(=O)c2c[nH]c3ncc(Cl)cc23)c1F
Summary of the method: as §1

[3] = compound: CCN(CCCOc1ccc2c(Nc3cc(CC(=O)Nc4cccc(F)c4)[nH]n3)ncnc2c1)CCOP(=O)(O)O [barasertib]
Summary of the method: as §1

[4] = compound: CC[C@@H]1C(=O)N(C)c2cnc(Nc3ccc(C(=O)NC4CCN(C)CC4)cc3OC)nc2N1C1CCCC1
Summary of the method: as §1

[5] = compound: CC[C@@H]1C(=O)N(C)c2cnc(Nc3ccc(C(=O)N[C@H]4CC[C@H](N5CCN(CC6CC6)CC5)CC4)cc3OC)nc2N1C(C)C [volasertib]
Summary of the method: as §1

[6] = compound: CCn1c(C(=O)N(C2CC2)C2CC2)cc2c3c(ncn3C)c(Nc3cc(C)n(C)n3)nc21
Summary of the method: as §1

[7] = compound: CCn1cc(-c2ccnc3[nH]c(-c4cccc(CN(C)C)c4)cc23)c(-c2ccc(NC(=O)N(C)C)cc2)n1
Summary of the method: as §1

[8] = compound: CN1CCC(CNc2ccc3ncc(-c4cccc(OC(F)(F)F)c4)n3n2)CC1
Summary of the method: as §1

[9] = compound: CN1CCN(CCOc2cc(OC3CCOCC3)c3c(Nc4c(Cl)ccc5c4OCO5)ncnc3c2)CC1 [saracatinib]
Summary of the method: as §1

[10] = compound: CN1CCN(c2nc(C3=C(c4c[nH]c5ccccc45)C(=O)NC3=O)c3ccccc3n2)CC1 [sotrastaurin]
Summary of the method: as §1

[11] = compound: CN1CC[C@H](c2c(O)cc(O)c3c(=O)cc(-c4ccccc4Cl)oc23)[C@H](O)C1 [alvocidib]
Summary of the method: as §1

[12] = compound: CN1CCc2c(c3ccccc3n2Cc2ccc(C(=O)NO)cc2)C1 [Tubastatin A]
Summary of the method: as §1

[13] = compound: CNC(=O)C1=CC=CC=C1NC2=NC(=NC=C2Cl)NC3=C(C=C(C=C3)N4CCOCC4)OC
Summary of the method: as §1

[14] = compound: CNC(=O)c1ccc(Nc2ncc(C(F)(F)F)c(NCc3nccnc3N(C)S(C)(=O)=O)n2)cc1 [defactinib]
Summary of the method: as §1

[15] = compound: CNc1nc(-c2ccc3c(N)n[nH]c3c2)cc(N2C[C@@H](C(=O)NC3CCCCC3)CC[C@H]2C)n1
Summary of the method: as §1

[16] = compound: COC(=O)N[C@@H](C)CNc1nccc(-c2cn(C(C)C)nc2-c2cc(Cl)cc(NS(C)(=O)=O)c2F)n1 [encorafenib]
Summary of the method: as §1

[17] = compound: COC(=O)[C@H](CCSC)NC(=O)C1=C(C=C(C=C1)NC[C@H](CS)N)C2=CC=CC=C2
Summary of the method: as §1

[18] = compound: COc1cc(Nc2ncc3c(n2)-c2ccc(Cl)cc2C(c2c(F)cccc2OC)=NC3)ccc1C(=O)O [alisertib]
Summary of the method: as §1

[19] = compound: COc1cc2nc(-c3cc(F)ccc3O)nc(N[C@@H]3CNC[C@H]3C(C)(C)O)c2cc1OC
Summary of the method: as §1

[20] = compound: COc1cc2ncnc(Nc3ccc(F)c(Cl)c3)c2cc1OCCCN1CCOCC1 [gefitinib]
Summary of the method: as §1

Target	log2 fold change [1]	log2 fold change [2]	log2 fold change [3]	log2 fold change [4]	log2 fold change [5]	log2 fold change [6]	log2 fold change [7]	log2 fold change [8]	log2 fold change [9]	log2 fold change [10]	log2 fold change [11]	log2 fold change [12]	log2 fold change [13]	log2 fold change [14]	log2 fold change [15]	log2 fold change [16]	log2 fold change [17]	log2 fold change [18]	log2 fold change [19]	log2 fold change [20]
MAP1A (UniProt P78559)	inactive: 0.001	inactive: 0.006	inactive: -0.005	inactive: 0.021	inactive: 0.007	inactive: -0.011	inactive: 0.001	inactive: 0.004	inactive: 0.003	inactive: 0.011	inactive: -0.01	inactive: -0.007	inactive: 0.02	inactive: -0.001	inactive: 0.004	inactive: -0.007	inactive: 0.023	inactive: 0.004	inactive: -0.009	inactive: -0.016
LUZP1 (UniProt Q86V48)	inactive: 0.037	inactive: 0.003	inactive: 0.013	inactive: 0.086	inactive: -0.015	inactive: 0.012	inactive: 0.108	inactive: 0.014	inactive: -0.024	inactive: -0.01	inactive: -0.027	inactive: -0.061	inactive: 0.099	inactive: -0.056	inactive: 0.004	inactive: 0.023	inactive: -0.074	inactive: -0.014	inactive: 0.012	inactive: 0.039
MAP3K7 (UniProt O43318)	inactive: 0.018	inactive: 0.024	inactive: 0.011	inactive: 0.027	inactive: -0.038	inactive: 0.009	inactive: 0.148	inactive: -0.011	inactive: 0.046	inactive: -0.003	inactive: 0.004	inactive: -0.023	inactive: 0.047	inactive: 0.014	inactive: 0.061	inactive: 0.024	inactive: -0.036	inactive: 0.014	inactive: 0.01	inactive: 0
LYSMD3 (UniProt Q7Z3D4)	inactive: 0.025	inactive: -0.05	inactive: -0.003	inactive: 0.074	inactive: 0.056	inactive: -0.013	inactive: -0.094	inactive: 0.235	inactive: 0.056	inactive: 0.002	inactive: -0.001	inactive: 0.127	inactive: -0.045	inactive: -0.062	inactive: 0.092	inactive: 0.031	inactive: -0.124	inactive: 0.001	inactive: 0.112	inactive: 0.254
LYSMD1 (UniProt Q96S90)	inactive: 0.007	inactive: 0.017	inactive: 0.01	inactive: 0.026	inactive: 0.047	inactive: -0.001	inactive: -0.006	inactive: 0.037	inactive: 0.089	inactive: 0.01	inactive: -0.031	inactive: 0.022	inactive: 0.028	inactive: 0.021	inactive: 0.052	inactive: 0.018	inactive: -0.061	inactive: 0.052	inactive: -0.017	inactive: 0.018
MALSU1 (UniProt Q96EH3)	inactive: 0.065	inactive: 0.012	inactive: 0.07	inactive: 0.136	inactive: -0.015	inactive: 0	inactive: -0.028	inactive: -0.014	inactive: -0.073	inactive: 0.014	inactive: -0.043	inactive: 0.029	inactive: 0	inactive: -0.007	inactive: 0.041	inactive: 0.075	inactive: -0.082	inactive: -0.247	inactive: 0.005	inactive: 0.066
MAGEA9 (UniProt P43362)	inactive: 0.057	inactive: 0.023	inactive: 0.019	inactive: -0.013	inactive: -0.024	inactive: 0.031	inactive: -0.116	inactive: 0.061	inactive: -0.003	inactive: -0.033	inactive: -0.007	inactive: 0.019	inactive: 0.016	inactive: -0.006	inactive: 0.103	inactive: 0.025	inactive: -0.024	inactive: 0.022	inactive: 0.022	inactive: -0.005
MARCKS (UniProt P29966)	inactive: -0.095	inactive: 0.035	inactive: -0.012	inactive: -0.031	inactive: 0.066	inactive: 0.039	inactive: -0.11	inactive: 0.013	inactive: 0.039	inactive: 0.014	inactive: 0.041	inactive: 0.03	inactive: -0.014	inactive: 0.031	inactive: -0.07	inactive: -0.049	inactive: -0.188	inactive: -0.04	inactive: -0.056	inactive: 0.018
MAN2A2 (UniProt P49641)	inactive: 0.036	inactive: 0.013	inactive: 0.084	inactive: 0	inactive: 0.001	inactive: 0.002	inactive: -0.049	inactive: -0.043	inactive: 0.004	inactive: 0.002	inactive: 0.051	inactive: 0.021	inactive: 0.013	inactive: -0.087	inactive: -0.014	inactive: 0.053	inactive: -0.037	inactive: 0.005	inactive: -0.01	inactive: 0.022
MAPK1 (UniProt P28482)	inactive: -0.022	inactive: -0.072	inactive: -0.015	inactive: -0.013	inactive: -0.009	inactive: 0.004	inactive: 0.004	inactive: -0.023	inactive: 0.002	inactive: -0.007	inactive: 0.051	inactive: 0.061	active: 0.242	inactive: 0.091	inactive: -0.007	inactive: -0.062	inactive: 0.031	inactive: -0.038	inactive: 0.043	inactive: 0.014
MAPK9 (UniProt P45984)	inactive: -0.016	inactive: -0.002	inactive: -0.025	inactive: -0.063	inactive: 0.006	inactive: -0.007	inactive: 0.084	inactive: -0.15	inactive: 0.002	inactive: -0.031	inactive: 0.028	inactive: -0.064	active: 0.44	inactive: 0.056	inactive: 0.006	inactive: 0.17	inactive: -0.019	inactive: -0.021	inactive: 0.006	inactive: 0.027
LTF (UniProt P02788)	inactive: -0.02	inactive: -0.08	inactive: -0.248	inactive: -0.112	inactive: 0.044	inactive: -0.029	inactive: 0.4	inactive: -0.241	inactive: -0.031	inactive: -0.151	inactive: 0.021	inactive: 0.123	inactive: -0.047	inactive: -0.078	inactive: -0.319	inactive: -0.071	inactive: 0.007	inactive: -0.09	inactive: 0.036	inactive: 0.094
MADD isoform 4 (UniProt Q8WXG6)	inactive: 0.009	inactive: 0.031	inactive: 0.016	inactive: 0	inactive: -0.01	inactive: 0	inactive: 0.001	inactive: -0.016	inactive: 0.036	inactive: 0.003	inactive: -0.016	inactive: -0.036	inactive: -0.005	inactive: 0.006	inactive: -0.002	inactive: 0.036	inactive: -0.008	inactive: -0.013	inactive: 0.033	inactive: 0.002
LZTFL1 (UniProt Q9NQ48)	inactive: 0.013	inactive: 0.025	inactive: 0.025	inactive: -0.005	inactive: -0.003	inactive: -0.032	inactive: 0.036	inactive: -0.018	inactive: 0	inactive: 0.026	inactive: 0.014	inactive: -0.028	inactive: -0.015	inactive: 0.005	inactive: 0.002	inactive: -0.002	inactive: -0.033	inactive: -0.019	inactive: 0.005	inactive: 0.008
MACF1 isoform 3 (UniProt Q9UPN3)	inactive: 0.002	inactive: 0.047	inactive: 0.022	inactive: -0.006	inactive: -0.034	inactive: -0.009	inactive: -0.056	inactive: -0.005	inactive: 0.021	inactive: 0.018	inactive: -0.007	inactive: -0.032	inactive: 0	inactive: -0.006	inactive: -0.005	inactive: 0.003	inactive: 0.026	inactive: 0.002	inactive: -0.016	inactive: -0.003
MAPRE2 (UniProt Q15555)	inactive: -0.01	inactive: 0.037	inactive: -0.052	inactive: -0.078	inactive: -0.048	inactive: 0.007	inactive: 0.254	inactive: -0.024	inactive: 0.053	inactive: 0.017	inactive: 0.043	inactive: -0.081	inactive: 0.025	inactive: 0.011	inactive: -0.071	inactive: 0.02	inactive: 0.093	inactive: 0.045	inactive: -0.017	inactive: 0.041

Quoted from the listing (2 entries):
Target	log2 fold change [1]	log2 fold change [2]	log2 fold change [3]	log2 fold change [4]	log2 fold change [5]	log2 fold change [6]	log2 fold change [7]	log2 fold change [8]	log2 fold change [9]	log2 fold change [10]	log2 fold change [11]	log2 fold change [12]	log2 fold change [13]	log2 fold change [14]	log2 fold change [15]	log2 fold change [16]	log2 fold change [17]	log2 fold change [18]	log2 fold change [19]	log2 fold change [20]
MAPK1 (UniProt P28482)	inactive: -0.022	inactive: -0.072	inactive: -0.015	inactive: -0.013	inactive: -0.009	inactive: 0.004	inactive: 0.004	inactive: -0.023	inactive: 0.002	inactive: -0.007	inactive: 0.051	inactive: 0.061	active: 0.242	inactive: 0.091	inactive: -0.007	inactive: -0.062	inactive: 0.031	inactive: -0.038	inactive: 0.043	inactive: 0.014
MAPK9 (UniProt P45984)	inactive: -0.016	inactive: -0.002	inactive: -0.025	inactive: -0.063	inactive: 0.006	inactive: -0.007	inactive: 0.084	inactive: -0.15	inactive: 0.002	inactive: -0.031	inactive: 0.028	inactive: -0.064	active: 0.44	inactive: 0.056	inactive: 0.006	inactive: 0.17	inactive: -0.019	inactive: -0.021	inactive: 0.006	inactive: 0.027

Reference: the supplement of paper PMC10849652
